## Screening data, single-dose tests

By UniProt entry, the sequences of proteins in these tests, tags left out. Residues count along the entry.
UniProt P9WPC5, whole entry: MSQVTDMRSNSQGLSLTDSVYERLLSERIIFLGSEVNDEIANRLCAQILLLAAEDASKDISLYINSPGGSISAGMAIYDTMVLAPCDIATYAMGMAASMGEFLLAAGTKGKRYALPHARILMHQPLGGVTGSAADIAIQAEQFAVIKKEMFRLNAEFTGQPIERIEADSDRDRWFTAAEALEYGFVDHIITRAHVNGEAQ
UniProt P9WPC3, whole entry partner: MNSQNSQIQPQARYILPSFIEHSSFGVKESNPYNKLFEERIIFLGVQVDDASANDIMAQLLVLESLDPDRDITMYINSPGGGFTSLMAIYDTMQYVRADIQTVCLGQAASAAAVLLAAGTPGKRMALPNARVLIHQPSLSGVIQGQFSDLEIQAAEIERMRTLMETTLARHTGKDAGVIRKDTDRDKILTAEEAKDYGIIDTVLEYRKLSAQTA
UniProt A4I591, 1-473: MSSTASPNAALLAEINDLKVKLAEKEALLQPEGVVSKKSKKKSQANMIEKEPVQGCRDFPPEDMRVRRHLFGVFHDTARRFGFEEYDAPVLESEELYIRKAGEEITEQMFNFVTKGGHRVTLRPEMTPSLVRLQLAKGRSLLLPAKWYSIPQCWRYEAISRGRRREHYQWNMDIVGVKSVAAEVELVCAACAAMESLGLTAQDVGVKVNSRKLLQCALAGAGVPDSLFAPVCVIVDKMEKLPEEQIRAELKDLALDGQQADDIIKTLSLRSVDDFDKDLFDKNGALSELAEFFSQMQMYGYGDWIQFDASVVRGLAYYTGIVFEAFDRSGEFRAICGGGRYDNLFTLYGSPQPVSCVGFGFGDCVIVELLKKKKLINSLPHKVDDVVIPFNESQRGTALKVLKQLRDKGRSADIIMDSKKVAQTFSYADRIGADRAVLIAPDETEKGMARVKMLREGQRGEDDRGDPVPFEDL

ClpP1P2: 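Protease assay of ClpP1P2, read by the AMC dye that it sets free. Target: ClpP1P2, Mycobacterium tuberculosis (UniProt P9WPC5 and UniProt P9WPC3). Tested at 50 µM. Direction is inferred from only a few compounds that gave an IC50; most scored high, so higher reads as stronger inhibition. Most other retested compounds had strongly negative values. Size under these conditions: about 69,000 compounds, about 10 of them at 50% or above in at least one test.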
LiHisRS: 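Enzyme assay of histidyl-tRNA synthetase; the read-out is not stated. Target: Histidine-tRNA ligase, Leishmania infantum (UniProt A4I591). Concentration: 30 µM. The record gives no direction; compounds that gave an IC50 in retests scored well above the rest, so higher reads as stronger inhibition. The assay is labelled LdHisRS but filed under L. infantum. About 69,000 compounds were tested under these conditions; 0.6% (about 410) showed 50% or more at least once.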

Values are the deposited “Percent Effect”, in %. How 0% and 100% were set is not recorded. Most values in the screen are low, and negative values occur. The compounds are a random part of those screened.

{"compound": "Fc1cccc(Oc2nccnc2C2CCN(C3CCOCC3)CC2)c1", "ClpP1P2": -2.771, "LiHisRS": 11.35}
{"compound": "c1cc(CN2CCc3c(nnn3CC3CC3)C2COCC2CC2)co1", "stereo": "configuration not stated", "ClpP1P2": -0.8294, "LiHisRS": 23.64}
{"compound": "NC(=O)c1ccc(CNC2CCCSC2)cc1", "stereo": "configuration not stated", "ClpP1P2": 4.314, "LiHisRS": 12.68}
{"compound": "Cc1ccsc1C(=O)N1CC2CC1(C(=O)NCC1CC1)C2", "ClpP1P2": -4.194, "LiHisRS": 11.65}
{"compound": "c1ccc(NC[C@@H]2CCC[C@@H]3CN(Cc4nccs4)C[C@@H]32)nc1", "ClpP1P2": -1.046, "LiHisRS": 12}
{"compound": "O=C1CC2(CCN(Cc3ccc(Cl)s3)C2)C(=O)N1", "stereo": "configuration not stated", "ClpP1P2": -1.562, "LiHisRS": -3.333}
{"compound": "Clc1ccccc1CN1CCCC(c2nnc(-c3cnccn3)o2)C1", "stereo": "configuration not stated", "ClpP1P2": -2.01, "LiHisRS": 12}
{"compound": "OC(COCc1ccc(Cl)cc1)CN1CC(n2cccn2)C1", "stereo": "configuration not stated", "ClpP1P2": -6.261, "LiHisRS": 17.86}
{"compound": "CN(C)CCCNC(=O)c1ccc(Cl)cc1Cl", "ClpP1P2": -4.287, "LiHisRS": 19.57}
{"compound": "Clc1cccc(CNC2CCN(CCc3ccncc3)CC2)c1", "ClpP1P2": 15.02, "LiHisRS": 21.21}
{"compound": "COc1ccc(-n2cc(CCO)cn2)cc1C(N)=O", "ClpP1P2": -9.524, "LiHisRS": 34.18}
{"compound": "Cn1ccc(CN2CCC(NC(=O)C3CCCCC3)CC2)cc1=O", "ClpP1P2": -13.26, "LiHisRS": 17.59}
{"compound": "CCc1ccc(CCC(=O)N2CCC(=O)Nc3cccnc32)cc1", "ClpP1P2": -9.064, "LiHisRS": 20}
{"compound": "Cc1cc(-c2nnn(CCC(N)=O)n2)ccc1F", "ClpP1P2": 1.547, "LiHisRS": 15.24}
{"compound": "O=C(O)C(c1ccc(O)cc1)N1CCC(N2CCSCC2)CC1", "stereo": "configuration not stated", "ClpP1P2": -7.681, "LiHisRS": 22.34}
{"compound": "Cc1cccc(NC(=O)C2CC(=O)n3cnnc3S2)c1", "stereo": "configuration not stated", "ClpP1P2": 11.95, "LiHisRS": 5.495}
{"compound": "CC(=O)c1ccc(C(=O)N2C[C@@H]3CC[C@H](C2)N(CC2CCC2)C3)s1", "ClpP1P2": -0.4376, "LiHisRS": 19.18}
{"compound": "COc1c(F)cc(CN2CCCC3(CC2)CNC(=O)O3)cc1Cl", "stereo": "configuration not stated", "ClpP1P2": -2.834, "LiHisRS": 19.74}
{"compound": "CN(C)CC(=O)N1CCCC2(CCC(=O)N(CCc3c[nH]cn3)C2)C1", "stereo": "configuration not stated", "ClpP1P2": 19.35, "LiHisRS": 16.04}
{"compound": "CN(C)c1ccc(CNC(=O)Nc2ccc(S(C)(=O)=O)nc2)cc1", "ClpP1P2": -26.25, "LiHisRS": 6.481}
{"compound": "Cn1ccnc1CN1CCC2(CC1)CCN(c1cncnc1)C2=O", "ClpP1P2": 10.36, "LiHisRS": 9}
{"compound": "Cc1ccc(C(=O)N2CCN(c3ncnc4nc(N)ccc34)CC2)cc1", "ClpP1P2": 1.58, "LiHisRS": 18.33}
{"compound": "CCCOc1cccc(NS(=O)(=O)c2cc(C(=O)O)cs2)c1", "ClpP1P2": 2.156, "LiHisRS": -3.774}
{"compound": "CN(Cc1cnn(C)c1)C(=O)c1ccnc(OC2CCC2)c1", "ClpP1P2": -11.57, "LiHisRS": 4.11}
{"compound": "CSCc1cccc(S(=O)(=O)N2CCCCC2)c1", "ClpP1P2": 4.429, "LiHisRS": 15.52}
{"compound": "O=S(=O)(NCCNc1cc(-n2cccn2)ncn1)c1cccs1", "ClpP1P2": 7.959, "LiHisRS": 3.478}
{"compound": "CCN1CCc2[nH]cnc2C12CCN(C(=O)CCCn1cncn1)CC2", "ClpP1P2": 1.715, "LiHisRS": 16}
{"compound": "COCCCC1CCCCN1S(=O)(=O)c1cccc(C#N)c1", "stereo": "configuration not stated", "ClpP1P2": 2.83, "LiHisRS": 22.34}
{"compound": "COCCN1CCCC(O)(CN2CCCN(c3ncccn3)CC2)C1=O", "stereo": "configuration not stated", "ClpP1P2": 10.19, "LiHisRS": 13.89}
{"compound": "Cc1cccc(C)c1NC(=O)NCC1CCCN(C2CCOCC2)C1", "stereo": "configuration not stated", "ClpP1P2": -5.237, "LiHisRS": 13.33}
{"compound": "Cc1nnc(NC(=O)CN2CCc3c(nc(C4CC4)n3C)C2)s1", "ClpP1P2": -9.523, "LiHisRS": 1.786}
{"compound": "Cc1cnn(CC2CN(CC(=O)Nc3nnc(C)s3)CCO2)c1", "stereo": "configuration not stated", "ClpP1P2": 2.678, "LiHisRS": 24.8}
{"compound": "Cc1cc(C)nc(Nc2cccc(C3CCCN(C(C)C)C3)n2)n1", "stereo": "configuration not stated", "ClpP1P2": -7.577, "LiHisRS": 13.54}
{"compound": "COCC1c2nnn(C)c2CCN1C(=O)c1ccc(OC)c(F)c1", "stereo": "configuration not stated", "ClpP1P2": -5.658, "LiHisRS": 2.703}
{"compound": "CN(Cc1nccn1C)C(=O)C1COCC(=O)N1Cc1ccccc1", "stereo": "configuration not stated", "ClpP1P2": 17.45, "LiHisRS": 20}
{"compound": "CC(C)N(C)CC(=O)NCC(Cc1ccc(F)cc1)C(N)=O", "stereo": "configuration not stated", "ClpP1P2": 2.99, "LiHisRS": 20.22}
{"compound": "Cc1cc(=O)[nH]c(-n2nc(C)c(CCC(=O)NCC(C)C)c2C)n1", "ClpP1P2": 4.524, "LiHisRS": 13.48}
{"compound": "Cc1ccsc1C(=O)NC1CCN(c2cnn(C)c2)C1=O", "stereo": "configuration not stated", "ClpP1P2": -2.379, "LiHisRS": 18.03}
{"compound": "CCS(=O)(=O)N1Cc2nnn(C)c2C(COCCN(C)C)C1", "stereo": "configuration not stated", "ClpP1P2": 0.5523, "LiHisRS": 12.28}
{"compound": "O=C1CCN(C(=O)C2(c3ccc(F)cc3)CCCC2)CCN1", "ClpP1P2": -1.591, "LiHisRS": 17.46}
{"compound": "CCN(CC)C(=O)CNC(=O)c1ccc(-c2ccsc2)nc1C", "ClpP1P2": -10.58, "LiHisRS": -6.173}
{"compound": "Cn1cc(-c2csc(CN3CCOCC3)n2)cn1", "ClpP1P2": -8.832, "LiHisRS": -2.885}
{"compound": "COC(=O)NCC(=O)N(C)CC1Cc2ccccc2CN1C", "stereo": "configuration not stated", "ClpP1P2": -13.73, "LiHisRS": 4.762}
{"compound": "Brc1cccc(-c2noc(CN3CCOCC3)n2)c1", "ClpP1P2": -2.162, "LiHisRS": 10.71}
{"compound": "CCN1CC(CN(C)c2cc(C)nc(N)n2)Oc2ccccc21", "stereo": "configuration not stated", "ClpP1P2": 2.903, "LiHisRS": 6.202}
{"compound": "COC(=O)CCNC(=O)c1nnn(-c2ccc(F)cc2)c1C1CC1", "ClpP1P2": -8.392, "LiHisRS": 8.036}

Repeated from the top, 6 entries:

| compound | ClpP1P2 | LiHisRS |
|---|---|---|
| `Fc1cccc(Oc2nccnc2C2CCN(C3CCOCC3)CC2)c1` | -2.771 | 11.35 |
| `c1cc(CN2CCc3c(nnn3CC3CC3)C2COCC2CC2)co1` (configuration not stated) | -0.8294 | 23.64 |
| `NC(=O)c1ccc(CNC2CCCSC2)cc1` (configuration not stated) | 4.314 | 12.68 |
| `Cc1ccsc1C(=O)N1CC2CC1(C(=O)NCC1CC1)C2` | -4.194 | 11.65 |
| `c1ccc(NC[C@@H]2CCC[C@@H]3CN(Cc4nccs4)C[C@@H]32)nc1` | -1.046 | 12 |
| `O=C1CC2(CCN(Cc3ccc(Cl)s3)C2)C(=O)N1` (configuration not stated) | -1.562 | -3.333 |

Source: ChEMBL document CHEMBL3988442, “University of Dundee, Small-Polar-MMV Screening Library” (2021).